PubChem BioAssay AID1259308 – NCATS | 2017
This is a random part of about 59,000 reagents tested. Over the whole deposit, about 1,510 (2.6%) were called active. 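Calls use total luciferase alone and ignore viability, so some active siRNAs may act by altering cell number.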 The numbers tell different reagents against one gene apart. Further read-outs or replicates are left out here.

- Assay: 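Genes whose loss raises luciferase production in HEK293 cells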 (primary screen)
- System: human HEK293 embryonic kidney cells stably expressing firefly luciferase (HEK-CMV-Luc2-Hygro)
- Knock-down reagent: single siRNA against human genes, 0.8 pmol siRNA per well
- Time to read-out: 72 h
- Measurement: 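Luciferase light (ONE-Glo) measured on one replicate plate set and viability (CellTiter-Glo) on the other, scaled to a negative control siRNA, with robust z-scores and luciferase per cell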
- Reading the numbers: total luciferase, z-score: higher = more reporter protein produced
- Active means: 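Active when the median/MAD z-score for overall luciferase is greater than 3; a gene was taken forward for validation with new siRNAs if at least two of its three siRNAs passed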
- Meaning of the calls: active = raised luciferase; inactive = no rise

Against RPL23AP37 #1, the values are total luciferase, z-score -1.9; inactive.
RPL23AP37 #2 gave total luciferase, z-score -1.88; inactive.
Knock-down of RPL23AP37 #3 gave: total luciferase, z-score 0.332; inactive.
EVX2 #1 showed total luciferase, z-score -0.214; inactive.
With knock-down of EVX2 #2, the record shows total luciferase, z-score -2.65; inactive.
EVX2 #3 scored total luciferase, z-score 0.298; inactive.
Silencing of ANKRD35 #1 came out at: total luciferase, z-score -0.106; inactive.
Against ANKRD35 #2 the deposit lists total luciferase, z-score -1.19; inactive.
Silencing of ANKRD35 #3 gave: total luciferase, z-score -0.193; inactive.
After knock-down of TCP11 #1, the record shows total luciferase, z-score 2.69; inactive.
After knock-down of TCP11 #2 the results were total luciferase, z-score -1.65; inactive.
After knock-down of TCP11 #3, the screen gave total luciferase, z-score 1.37; inactive.
Knock-down of CNOT11 #1 gave: total luciferase, z-score 0.132; inactive.
CNOT11 #2 gave total luciferase, z-score -0.549; inactive.
CNOT11 #3 showed total luciferase, z-score -0.637; inactive.
RGCC #1 scored total luciferase, z-score -0.127; inactive.
For RGCC #2, the entry reads total luciferase, z-score -0.167; inactive.
Against RGCC #3 the deposit lists total luciferase, z-score 0.29; inactive.
Knock-down of SMC3 #1 resulted in: total luciferase, z-score 0.289; inactive.
Against SMC3 #2 the deposit lists total luciferase, z-score -0.901; inactive.
Depletion of SMC3 #3 gave: total luciferase, z-score -0.593; inactive.
After knock-down of MPV17L #1, the screen gave total luciferase, z-score -0.205; inactive.
After knock-down of MPV17L #2, the screen gave total luciferase, z-score -0.373; inactive.
Against MPV17L #3 the deposit lists total luciferase, z-score 1.93; inactive.
Silencing of FABP9 #1 came out at: total luciferase, z-score -0.207; inactive.
Knock-down of FABP9 #2 came out at: total luciferase, z-score -0.906; inactive.
FABP9 #3 scored total luciferase, z-score -0.306; inactive.
With knock-down of GGCX #1, the screen gave total luciferase, z-score -0.258; inactive.
For GGCX #2 the deposit lists total luciferase, z-score 1.42; inactive.
After knock-down of GGCX #3, the screen gave total luciferase, z-score 0.278; inactive.
For GUCY2EP #1 the deposit lists total luciferase, z-score 0.0218; inactive.
Knock-down of GUCY2EP #2 resulted in: total luciferase, z-score 3.02; active.
Depletion of GUCY2EP #3 resulted in: total luciferase, z-score -0.929; inactive.
